Experimental data: US20250281622A1
Results are given in words; binding and its absence hold for the method and conditions named. Some binding calls cover weakened binding; strength is not graded here.

Biological target: human CD71 (membrane protein expressed on cells) (human) (UniProt P02786)
Test: Membrane Proteome Array, flow cytometry on QT6 cells expressing human membrane proteins

B1: ABX1198 (SEQ ID NO: 509) (designed binder)
chain: MLPAPKNLVVSRVTEDSARLSWTAPDAAFDSFYIAYAEPRPDGEAILLQVPGSCRSYDLTGLKPGTEYSVLIHGVKGGLLSSPLTAIFTT
  binding: binds
